Experimental data: PubChem BioAssay AID1259254 (NCATS, 2017)

Screen: 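Gene knock-downs that lead to re-replication, shown by excess G2 DNA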 (primary screen)
Cells: human HCT116 colorectal cancer cells
Knock-down reagent: single siRNA against human genes
Duration: 3 days
Read-out: 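Nuclei stained with Hoechst and imaged; cell-cycle phase assigned by DNA content; G2 share scaled per plate, non-targeting siRNA 0%, GMNN siRNA 100%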
Reading the numbers: G2 robust z-score and G2 cells, % of GMNN control: higher = more G2 cells, more excess DNA replication
Call rule: 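Active siRNAs have a G2 robust z of 5 or more median absolute deviations over the median, which in these data means about 38% or higher of GMNN control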
In all, the deposit lists about 59,000 reagents; shown is a random part of them. About 1,550 of all reagents (2.6%) were called active. 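G2 share is only a proxy for re-replication; each gene was hit by three separate siRNAs, and active genes were retested.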 Unmarked entries are inactive. Further read-outs or replicates are left out here. The record does not give: the amount of reagent.

SLC41A2 [SID160751725] — G2 robust z-score: 1.95; G2 cells, % of GMNN control: 16.7
SLC41A2 [SID160751726] — G2 robust z-score: 1.33; G2 cells, % of GMNN control: 12.3
SLC41A2 [SID160751727] — G2 robust z-score: 0.137; G2 cells, % of GMNN control: 3.93
ARHGEF10L (Rho guanine nucleotide exchange factor 10 like) [SID160743092] — G2 robust z-score: -0.827; G2 cells, % of GMNN control: -2.85
ARHGEF10L (Rho guanine nucleotide exchange factor 10 like) [SID160743093] — G2 robust z-score: 0.791; G2 cells, % of GMNN control: 8.53
ARHGEF10L (Rho guanine nucleotide exchange factor 10 like) [SID160743094] — G2 robust z-score: -0.353; G2 cells, % of GMNN control: 0.48
PDHX (pyruvate dehydrogenase complex component X) [SID160719591] — G2 robust z-score: -0.213; G2 cells, % of GMNN control: 1.47
PDHX (pyruvate dehydrogenase complex component X) [SID160719592] — G2 robust z-score: 0.427; G2 cells, % of GMNN control: 5.97
PDHX (pyruvate dehydrogenase complex component X) [SID160719593] — G2 robust z-score: 7.19 (active); G2 cells, % of GMNN control: 53.6
ARPP19 (cAMP regulated phosphoprotein 19) [SID160729195] — G2 robust z-score: -1.16; G2 cells, % of GMNN control: -5.17
ARPP19 (cAMP regulated phosphoprotein 19) [SID160729196] — G2 robust z-score: 0.284; G2 cells, % of GMNN control: 4.97
ARPP19 (cAMP regulated phosphoprotein 19) [SID160732292] — G2 robust z-score: 0.458; G2 cells, % of GMNN control: 6.19
SPX (spexin hormone) [SID160750541] — G2 robust z-score: -0.131; G2 cells, % of GMNN control: 2.05
SPX (spexin hormone) [SID160750542] — G2 robust z-score: 1.96; G2 cells, % of GMNN control: 16.7
SPX (spexin hormone) [SID160750544] — G2 robust z-score: -0.0546; G2 cells, % of GMNN control: 2.58
SYT9 (synaptotagmin 9) [SID160758025] — G2 robust z-score: 0.179; G2 cells, % of GMNN control: 4.23
SYT9 (synaptotagmin 9) [SID160758026] — G2 robust z-score: 1.17; G2 cells, % of GMNN control: 11.2
SYT9 (synaptotagmin 9) [SID160758027] — G2 robust z-score: -0.585; G2 cells, % of GMNN control: -1.15
ST6GALNAC1 (ST6 N-acetylgalactosaminide alpha-2,6-sialyltransferase 1) [SID160744412] — G2 robust z-score: 0.481; G2 cells, % of GMNN control: 6.35
ST6GALNAC1 (ST6 N-acetylgalactosaminide alpha-2,6-sialyltransferase 1) [SID160744414] — G2 robust z-score: 0.167; G2 cells, % of GMNN control: 4.14
ST6GALNAC1 (ST6 N-acetylgalactosaminide alpha-2,6-sialyltransferase 1) [SID160744415] — G2 robust z-score: -0.129; G2 cells, % of GMNN control: 2.06
TMPRSS5 (transmembrane serine protease 5) [SID160750652] — G2 robust z-score: -1.45; G2 cells, % of GMNN control: -7.21
TMPRSS5 (transmembrane serine protease 5) [SID160750653] — G2 robust z-score: 0.0756; G2 cells, % of GMNN control: 3.5
TMPRSS5 (transmembrane serine protease 5) [SID160750654] — G2 robust z-score: 0.662; G2 cells, % of GMNN control: 7.63

Entries above with an active call, once more:
PDHX (pyruvate dehydrogenase complex component X) [SID160719593] — G2 robust z-score: 7.19 (active); G2 cells, % of GMNN control: 53.6
